# Measured values: patent publication US9192670B2, “Regulation of amyloid beta molecular composition for the treatment of alzheimer's disease” (Ramot at Tel-Aviv University Ltd., priority 2011, dated 2015)
# Some of these results come from one statement about several compounds together. Some ranges recur; such a range may be that of the whole group of compounds.
# Test system: hippocampal slices
# Experiment: Extracellular Aβ40/Aβ42 by sandwich ELISA in acute hippocampal slices stimulated by single spikes or spike bursts
# Assay type: cell-based, rat
row,Molecule,"[Aβ42]o reduced by, during either single- or burst-pattern stimuli"
1,"OC[C@H]1O[C@@H](n2cnc3c(NC4CCCC4)nc(Cl)nc32)[C@H](O)[C@@H]1O [CCPA, 2-Chloro-N-cyclopentyladenosine]",25-30%
2,NCC(CC(=O)O)c1ccc(Cl)cc1 (stereo not drawn) [baclofen],25-30%
3,ω-conotoxin GVIA [ω-CgTx],25-30%
